Source: PubChem BioAssay AID540276 (National Center for Advancing Translational Sciences (NCATS), 2011)
Out of some 300,000 compounds screened, about 5,400 (1.8%) were called active. This list was built around the results that the source calls inconclusive (neither active nor inactive); the mix of calls is not that of the screen. Calls follow the shape of the full dose curve; tested in HEK293 cells. A potency beside an inconclusive call is a rough fit, not a confirmed value.

Assay: qHTS for inhibitors of binding or entry into cells for Marburg Virus
Details: Marburg virus pseudotyped entry inhibition, cell reporter; activity change, negative = inhibition: at 37.8 µM (top of the series) unless noted
% is scaled to controls: 0 for no effect and ±100 for the full control effect; potency is read from the fitted curve at half-maximal effect.

| SMILES | Potency | activity change, negative = inhibition |
| --- | --- | --- |
| CCOC(=O)c1sc(NC(=O)c2ccccc2)cc1C | inconclusive: 11.6 µM [inhibitor, partial curve, poor fit] |  |
| O=C(CSc1ccc2c(c1)OCCO2)Nc1ccc(N2CCOCC2)cc1 | inconclusive: 35.5 µM [activator, single point] |  |
| COC(=O)c1ccc(NC(=O)C[n+]2ccccc2)cc1 |  | inactive: 3.61% [at 46.1 µM] |
| COc1ccc(C(=O)NCC(c2ccco2)N2CCOCC2)cc1OC (centres undefined) | inconclusive: 5.62 µM [activator, single point] |  |
| COc1ccc2oc(C)c(C(N)=O)c2c1 |  | inactive: -4.33% |
| COC(=O)c1cc2cc(Cl)ccc2nc1SC |  | inactive: -1.06% |
| CCS(=O)(=O)N1CCc2cc(C(=O)N3CCN(c4ccccc4)CC3)ccc21 |  | inactive: -1.91% [at 46.1 µM] |
| O=C(CCc1ccncc1)NC1CCCc2c1cnn2-c1ccc(F)cc1F (centres undefined) | inconclusive: 10 µM [inhibitor, partial curve, poor fit] |  |
| Fc1ccccc1CNC(=S)Nc1ccc(Cl)cc1 | inconclusive: 35.5 µM [inhibitor, single point] |  |
| CCOc1ncccc1C(=O)OCC(=O)Nc1cccc(S(N)(=O)=O)c1 | inconclusive: 11.2 µM [activator, single point] |  |
| COc1ccc2[nH]cc(S(=O)(=O)c3ccc(C)cc3)c2c1 | inconclusive: 5.62 µM [inhibitor, partial curve, poor fit] |  |
| CC1Oc2ccccc2N(CC(=O)NC2CC2)C1=O (centres undefined) | inconclusive: 22.4 µM [activator, single point] |  |
| CCN(Cc1ccccc1)C(=O)Cn1cnc2c1c(=O)n(C)c(=O)n2C | inconclusive: 25.9 µM [activator, single point] |  |
| Cc1cc(C)nc(NS(=O)(=O)c2ccc(N/C=C/C(=O)c3ccc(Cl)c(Cl)c3)cc2)n1 |  | inactive: 22.9% |
| O=[N+]([O-])c1ccc(Cl)c(S(=O)(=O)Nc2cccc(-c3ccc(N4CCOCC4)nn3)c2)c1 | inconclusive: 0.355 µM [inhibitor, partial curve, poor fit] |  |
| COc1ccc(C(CC(=O)Nc2nccs2)C(C)C)cc1 (centres undefined) | inconclusive: 35.5 µM [inhibitor, single point] |  |
| C#CCCOC(=O)N1C2=NC3=C(C(=O)N(Cc4ccc5c(c4)OCO5)C3=O)C3N(C)c4ccccc4[C@]23C[C@H]1CO (some centres undefined) |  | inactive: -22.9% [at 14.2 µM] |
| COC(=O)N1C(C=CC=Cc2ccc(OC)cc2)=Cc2ccccc2C1CC(C)=O (centres undefined) | inconclusive: 5.31 µM [inhibitor, single point] |  |
| CCCCN(CC)S(=O)(=O)c1ccc(C(=O)N=c2sc3cc(NC(C)=O)ccc3n2C)cc1 |  | inactive: 14.2% |
| OCCNC(=S)NC1CCCCC1 |  | inactive: 0.815% |
| Cc1ccc(S(=O)(=O)NC(C)(C)CN2CCNCC2)cc1 | inconclusive: 5.62 µM [inhibitor, full curve, poor fit] |  |
| COc1ccc(-c2cc(C(=O)OCC(=O)N3CCOCC3)c3ccccc3n2)cc1 | inconclusive: 35.5 µM [inhibitor, single point] |  |

Entries from the list above that contain an aryl thioether with sulfur outside any ring, in the order listed:

| SMILES | Potency | activity change, negative = inhibition |
| --- | --- | --- |
| O=C(CSc1ccc2c(c1)OCCO2)Nc1ccc(N2CCOCC2)cc1 | inconclusive: 35.5 µM [activator, single point] |  |
| COC(=O)c1cc2cc(Cl)ccc2nc1SC |  | inactive: -1.06% |

Continued.

| SMILES | Potency | activity change, negative = inhibition |
| --- | --- | --- |
| COc1cc(-c2nc(Cn3nnc(C(=O)Nc4ccccc4C)c3C)c(C)o2)cc(OC)c1OC | inconclusive: 3.55 µM [inhibitor, partial curve, poor fit] |  |
| N#Cc1c(NCCN)nc(-c2ccco2)c2c1CCCC2 | inconclusive: 35.5 µM [inhibitor, single point] |  |
| Cc1ccc(-c2cc(C(=O)N3CCN(c4ncccn4)CC3)c3ccccc3n2)cc1 | inconclusive: 35.5 µM [inhibitor, single point] |  |
| CCc1ccc(NC(=O)Cn2c(=O)n(CCCC(=O)NCc3ccccc3OC)c(=O)c3ccccc32)cc1 | inconclusive: 2.51 µM [inhibitor, full curve] |  |
| CC(C)N(C(=O)N1CCN(c2ccnc3cc(Cl)ccc23)CC1)C(C)C | inconclusive: 15.8 µM [inhibitor, single point] |  |
| COC(=O)CN(C)C1CC(=O)N(c2ccc(Cl)cc2)C1=O (centres undefined) |  | inactive: 0.32% |
| O=C1C2CCCN2C(=S)N1c1ccc(Cl)cc1 (centres undefined) | inconclusive: 11.2 µM [inhibitor, single point] |  |
| CCC(C(=O)NC1CCCC1)N(C(=O)Cn1nnc(-c2ccc(C)o2)n1)c1cccc(O)c1 (centres undefined) | inconclusive: 7.08 µM [inhibitor, partial curve, poor fit] |  |
| O=C(COC(=O)c1ccccc1Nc1ccc(SC(F)F)cc1)NC1CC1 | inconclusive: 11.2 µM [inhibitor, partial curve, poor fit] |  |
| CCCc1cc2c(=O)c(-c3ccc4c(c3)OCCO4)coc2cc1OS(C)(=O)=O | inconclusive: 14.1 µM [inhibitor, single point] |  |
| C[C@@H]1C(=O)O[C@@H]2[C@H](O)C34[C@H]5C[C@@H](C(C)(C)C)C36[C@H](OC(=O)[C@@H]6O)OC4(C(=O)O5)[C@@]12O (some centres undefined) | inconclusive: 16.4 µM [activator, single point] |  |
| CC1CC(OCC(O)CN2CCCCC2C)CC(C)(C)C1 (centres undefined) | inconclusive: 8.91 µM [inhibitor, partial curve, poor fit] |  |
| O=C1c2oc3ccccc3c(=O)c2C(c2ccccn2)N1Cc1ccccc1 (centres undefined) | inconclusive: 0.112 µM [activator, full curve, poor fit] |  |
| COc1ccccc1N1CCN(C2=Nc3cccc4cccc2c34)CC1 | active: 6.31 µM |  |
| Cc1cc(C)nc(SCC(=O)Nc2cc(C)on2)n1 |  | inactive: 1.34% |
| Cc1nn(Cc2ccc(C(=O)Nc3ccc(C(=O)OC(C)C)cc3)o2)c(C)c1Cl | inconclusive: 29.1 µM [inhibitor, single point] |  |
| O=C(N/N=C/c1cn(CCOc2ccccc2)c2ccccc12)c1ccncc1 |  | inactive: -0.17% |
| Cc1ccccc1C(=O)NC(=S)NCc1cccnc1 |  | inactive: 21.7% [at 46.1 µM] |
| COc1ccc(-n2cc(-c3ccc(Br)cc3)[nH]c2=S)cc1 |  | inactive: 2.22% [at 46.1 µM] |
| O=c1[nH]c(=O)n(C2OC(CO)C(O)C2O)cc1N1CCOCC1 (centres undefined) |  | inactive: 5.87% |
| Cc1nc(Nc2cccc(Cl)c2)c2oc3ccccc3c2n1 | inconclusive: 12.6 µM [inhibitor, partial curve, poor fit] |  |
| CCC(CC)C(=O)c1c[nH]c(C(=O)NCc2cccnc2)c1 |  | inactive: -21.9% |
